Source: US20050227982A1, “Antileishmanial dinitroaniline sulfanomides with activity against parasite tubulin” (priority 2002, published 2005)

What follows are compounds tested on leishmanial tubulin. Conditions: leishmanial vs rat brain tubulin Kd ratio.
Type: binding, Leishmania

SMILES | Selectivity Index
CCCNS(=O)(=O)c1cc([N+](=O)[O-])c(N(CCC)CCC)c([N+](=O)[O-])c1 [Compound 21, N1-Propyl-3,5-dinitro-N4,N4-di-n-propylsulfonilamide] | 26.6
CCCN(CCC)c1c([N+](=O)[O-])cc(S(=O)(=O)Nc2ccccc2)cc1[N+](=O)[O-] [Compound 20, N1-Phenyl-3,5-dinitro-N4,N4-di-n-propylsulfonilamide] | 11.4
CCCCN(CCCC)c1c([N+](=O)[O-])cc(S(N)(=O)=O)cc1[N+](=O)[O-] [Compound 15, 4(dibutylamino)-3,5-dinitrobenzenesulfonamide] | 0.9
CCCCCCN(CCCCCC)c1c([N+](=O)[O-])cc(S(N)(=O)=O)cc1[N+](=O)[O-] [Compound 17] | 4.9
CCCCCN(CCCCC)c1c([N+](=O)[O-])cc(S(N)(=O)=O)cc1[N+](=O)[O-] [Compound 16] | 4.5
